Here are results for 1 molecule from publication PMC4094919, “Screening and hit evaluation of a chemical library against blood-stage Plasmodium falciparum” (Malaria Journal, 2014).

SMILES strings stand for the structures.

The data set relates to P. falciparum NF54 strain. The experiment in a line: P. falciparum NF54 growth assay, 3H-hypoxanthine incorporation (hit validation). Format: cell-based, Plasmodium falciparum. To be noted: Ligand Efficiency Index = pEC50/(MW/1000). The protocol:
Synthesized compounds were tested in an alternative assay, in which ^3H-hypoxanthine incorporation was measured in the chloroquine-sensitive strain NF54 (Values were measured in duplicate, 12 points/EC50).
Cultivation of Plasmodium falciparum: Plasmodium falciparum strain NF54 was obtained from the Research and Reference Reagent Resource Center (MR4) (Manassas, VA, USA). The two strains were maintained in vitro by a modification of the method of Trager and Jensen. Cultures were maintained in A positive (A^+) human erythrocytes suspended at 5% hematocrit in complete medium. […] Parasite growth and morphology were observed daily using thin smears at 100X (oil immersion) magnification following staining with Giemsa stain. […]
Following the incubation period, the plates were harvested with a FilterMate cell harvester (Perkin Elmer) onto unifilter-96 GF/B plates, washed with distilled water to remove excess radiochemical and plates were kept for drying 37°C overnight or 60°C for 1 hr. […] The plates were counted in a Top Count NXT microplate scintillation and luminescence counter (Perkin Elmer). The mean values for [^3H]-hypoxanthine incorporation in parasitized control and non-parasitized control erythrocytes were calculated.
Assay data were analysed using Graph pad prism ver.5 software. […]

In the case of `O=C(Nc1cccc(Cl)c1)N1CC2(CCN(Cc3ccccc3)CC2)c2ccccc21` [Compound 17, 1'-benzyl-N-(3-chlorophenyl)spiro[indoline-3,4'-piperidine]-1-carboxamide], the “LEI (NF54)” value is 15.1.
